These are yes or no findings as the source states them, for the method shown. For part of these data: Binding seen in cells or lysates may run through a third protein. Some entries that bind do so weakly or less than the wild type.
Tests used:
[1] = biological target: T1, S. cerevisiae Nse2 (S. cerevisiae) (UniProt P38632); assay: pull-down; S. cerevisiae Smc5/6 subunits co-expressed in E. coli Rosetta (DE3), one subunit with a Twin-Strep tag (N- or C-terminal); clarified lysate on Strep-Tactin Sepharose, 1 h at 4°C, 50 mM Tris-HCl pH 7.5, 300 mM NaCl, 5% glycerol; eluted with 2.5 mM desthiobiotin; Coomassie-stained SDS-PAGE
T1 sequence: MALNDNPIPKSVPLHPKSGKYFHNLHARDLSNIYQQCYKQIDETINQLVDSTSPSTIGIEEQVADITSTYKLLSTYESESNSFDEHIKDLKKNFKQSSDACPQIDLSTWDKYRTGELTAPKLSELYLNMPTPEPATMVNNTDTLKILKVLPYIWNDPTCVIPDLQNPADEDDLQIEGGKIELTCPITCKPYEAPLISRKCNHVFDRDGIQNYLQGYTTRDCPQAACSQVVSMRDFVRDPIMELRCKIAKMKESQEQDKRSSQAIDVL

[2] = biological target: T2, S. cerevisiae Nse4 (S. cerevisiae) (UniProt P43124); assay: as above
T2 sequence: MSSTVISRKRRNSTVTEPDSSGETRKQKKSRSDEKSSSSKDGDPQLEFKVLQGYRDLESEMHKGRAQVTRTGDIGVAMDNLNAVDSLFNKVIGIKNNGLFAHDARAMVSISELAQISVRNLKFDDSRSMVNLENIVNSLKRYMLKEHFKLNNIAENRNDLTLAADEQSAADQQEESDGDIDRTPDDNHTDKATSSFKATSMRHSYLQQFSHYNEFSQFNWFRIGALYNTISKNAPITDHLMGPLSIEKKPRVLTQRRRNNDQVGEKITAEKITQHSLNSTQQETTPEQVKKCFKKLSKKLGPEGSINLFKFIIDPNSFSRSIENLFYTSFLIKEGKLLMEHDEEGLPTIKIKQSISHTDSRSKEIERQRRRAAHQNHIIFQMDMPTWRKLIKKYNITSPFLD

[3] = biological target: T3, S. cerevisiae Nse3 (S. cerevisiae) (UniProt Q05541); assay: as above
T3 sequence: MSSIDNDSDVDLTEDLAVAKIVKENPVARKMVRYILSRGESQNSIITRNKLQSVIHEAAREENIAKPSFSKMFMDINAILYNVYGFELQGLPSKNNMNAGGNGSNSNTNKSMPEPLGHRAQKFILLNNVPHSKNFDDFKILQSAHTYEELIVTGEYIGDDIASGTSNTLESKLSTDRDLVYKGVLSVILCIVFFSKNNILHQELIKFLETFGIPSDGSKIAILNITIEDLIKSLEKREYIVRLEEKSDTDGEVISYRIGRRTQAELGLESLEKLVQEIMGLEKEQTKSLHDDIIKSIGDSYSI

[4] = biological target: T4, S. cerevisiae Smc6 (S. cerevisiae) (UniProt Q12749); assay: as above
T4 sequence: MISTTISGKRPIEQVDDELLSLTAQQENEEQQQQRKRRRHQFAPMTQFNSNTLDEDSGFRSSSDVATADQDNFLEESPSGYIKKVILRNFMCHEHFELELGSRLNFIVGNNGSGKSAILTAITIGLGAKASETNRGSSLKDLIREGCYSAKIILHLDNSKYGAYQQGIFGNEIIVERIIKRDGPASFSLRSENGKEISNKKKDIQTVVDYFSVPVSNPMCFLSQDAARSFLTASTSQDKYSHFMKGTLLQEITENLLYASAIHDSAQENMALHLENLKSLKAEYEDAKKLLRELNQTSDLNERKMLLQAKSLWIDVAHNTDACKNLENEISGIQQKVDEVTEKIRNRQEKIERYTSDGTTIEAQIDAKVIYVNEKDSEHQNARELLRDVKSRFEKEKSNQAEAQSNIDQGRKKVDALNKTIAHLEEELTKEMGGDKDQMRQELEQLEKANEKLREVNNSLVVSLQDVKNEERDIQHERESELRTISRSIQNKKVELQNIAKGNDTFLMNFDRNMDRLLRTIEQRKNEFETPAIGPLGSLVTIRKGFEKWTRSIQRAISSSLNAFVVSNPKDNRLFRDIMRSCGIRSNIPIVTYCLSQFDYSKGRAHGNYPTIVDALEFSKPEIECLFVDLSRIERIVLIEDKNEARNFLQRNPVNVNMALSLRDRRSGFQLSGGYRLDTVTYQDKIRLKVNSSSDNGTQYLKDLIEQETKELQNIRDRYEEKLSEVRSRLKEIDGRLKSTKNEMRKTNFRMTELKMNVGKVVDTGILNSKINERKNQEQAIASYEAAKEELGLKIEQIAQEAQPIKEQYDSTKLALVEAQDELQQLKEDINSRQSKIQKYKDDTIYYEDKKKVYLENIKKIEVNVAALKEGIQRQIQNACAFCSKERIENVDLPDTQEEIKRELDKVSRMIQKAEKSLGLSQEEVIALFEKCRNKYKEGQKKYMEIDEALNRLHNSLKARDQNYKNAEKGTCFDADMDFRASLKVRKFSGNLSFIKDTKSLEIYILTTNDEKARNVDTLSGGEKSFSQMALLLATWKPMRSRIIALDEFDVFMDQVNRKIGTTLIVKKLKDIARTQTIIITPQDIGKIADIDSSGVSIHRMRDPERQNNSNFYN

[5] = biological target: T5, S. cerevisiae Nse1 (S. cerevisiae) (UniProt Q07913); assay: as above
T5 sequence: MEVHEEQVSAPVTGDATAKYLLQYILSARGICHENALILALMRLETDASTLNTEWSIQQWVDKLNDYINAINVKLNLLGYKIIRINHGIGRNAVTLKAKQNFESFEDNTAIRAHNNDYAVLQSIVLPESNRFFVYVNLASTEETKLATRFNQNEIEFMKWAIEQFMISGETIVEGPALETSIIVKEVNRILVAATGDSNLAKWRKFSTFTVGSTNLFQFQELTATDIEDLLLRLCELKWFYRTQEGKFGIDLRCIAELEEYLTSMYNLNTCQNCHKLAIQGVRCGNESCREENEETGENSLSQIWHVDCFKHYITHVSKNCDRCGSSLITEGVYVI

[6] = biological target: T4, S. cerevisiae Smc6 (S. cerevisiae); assay: SEC; large scale, 1 liter E. coli culture; Smc6 with C-terminal Twin-Strep tag; StrepTrap, HiTrap Heparin, then Superose 6 Increase in 10 mM Tris-HCl pH 7.5, 300 mM NaCl; peak fractions by SDS-PAGE and LC-MS/MS

Measured: binding

B1: S. cerevisiae Smc5 (protein, UniProt Q08204 1-1093)
chain: MTSLIDLGRYVERTHHGEDTEPRSKRVKIAKPDLSSFQPGSIIKIRLQDFVTYTLTEFNLSPSLNMIIGPNGSGKSTFVCAVCLGLAGKPEYIGRSKKVEDFIKNGQDVSKIEITLKNSPNVTDIEYIDARDETIKITRIITRSKRRSDYLINDYQVSESVVKTLVAQLNIQLDNLCQFLSQERVEEFARLKSVKLLVETIRSIDASLLDVLDELRELQGNEQSLQKDLDFKKAKIVHLRQESDKLRKSVESLRDFQNKKGEIELHSQLLPYVKVKDHKEKLNIYKEEYERAKANLRAILKDKKPFANTKKTLENQVEELTEKCSLKTDEFLKAKEKINEIFEKLNTIRDEVIKKKNQNEYYRGRTKKLQATIISTKEDFLRSQEILAQTHLPEKSVFEDIDIKRKEIINKEGEIRDLISEIDAKANAINHEMRSIQRQAESKTKSLTTTDKIGILNQDQDLKEVRDAVLMVREHPEMKDKILEPPIMTVSAINAQFAAYLAQCVDYNTSKALTVVDSDSYKLFANPILDKFKVNLRELSSADTTPPVPAETVRDLGFEGYLSDFITGDKRVMKMLCQTSKIHTIPVSRRELTPAQIKKLITPRPNGKILFKRIIHGNRLVDIKQSAYGSKQVFPTDVSIKQTNFYQGSIMSNEQKIRIENEIINLKNEYNDRKSTLDALSNQKSGYRHELSELASKNDDINREAHQLNEIRKKYTMRKSTIETLREKLDQLKREARKDVSQKIKDIDDQIQQLLLKQRHLLSKMASSMKSLKNCQKELISTQILQFEAQNMDVSMNDVIGFFNEREADLKSQYEDKKKFVKEMRDTPEFQSWMREIRSYDQDTKEKLNKVAEKYEEEGNFNLSFVQDVLDKLESEIAMVNHDESAVTILDQVTAELRELEHTVPQQSKDLETIKAKLKEDHAVLEPKLDDIVSKISARFARLFNNVGSAGAVRLEKPKDYAEWKIEIMVKFRDNAPLKKLDSHTQSGGERAVSTVLYMIALQEFTSAPFRVVDEINQGMDSRNERIVHKAMVENACAENTSQYFLITPKLLTGLHYHEKMRIHCVMAGSWIPNPSEDPKMIHFGETSNYSFD
binds: all assays above
